Where a name gives a salt, the structure may show the parent alone. Read-outs that look alike come from different tables or passages of the source.
How the values were obtained:
hairless rat skin = conditions: patch 24 hours, calculated from IV clearance
[1] = IV bolus, hairless rats, n = 3
in vivo = conditions: hairless, rat, iv

Q: Which “Dose delivered ± SD” value (hairless rat skin; group 2, passive (0 mA)) does the source give for `COc1cc2c(cc1OC)C(=O)C(CC1CCN(Cc3ccccc3)CC1)C2` (stereo not drawn) [Donepezil HCl, donepezil HCl] here?
A: 0 mg/day

Q: And the “Dose delivered ± SD” value (hairless rat skin; group 3, 0.13 mA)?
A: 2.55 ± 0.75 mg/day

Q: What about the “Dose delivered ± SD” value (hairless rat skin; group 4, 0.26 mA) of the same molecule?
A: 5.83 ± 0.37 mg/day

Q: And the “Dose delivered ± SD” value (hairless rat skin; group 5, 0.39 mA)?
A: 8.75 ± 2.83 mg/day

Q: And the “Elimination rate const. (λz)” value [1]?
A: 0.19 h⁻¹

Q: What about the clearance (in vivo) of the same molecule?
A: 38.1 mL/min/kg

Source: patent US8295923B2 (priority 2008, dated 2012)
